Reference: publication PMC5307883
These are yes or no findings as the source states them, for the method shown. In cells and extracts the contact can be indirect. Some entries that bind do so weakly or less than the wild type.

By UniProt entry, the sequences of proteins in these tests, tags left out.
UniProt P00352: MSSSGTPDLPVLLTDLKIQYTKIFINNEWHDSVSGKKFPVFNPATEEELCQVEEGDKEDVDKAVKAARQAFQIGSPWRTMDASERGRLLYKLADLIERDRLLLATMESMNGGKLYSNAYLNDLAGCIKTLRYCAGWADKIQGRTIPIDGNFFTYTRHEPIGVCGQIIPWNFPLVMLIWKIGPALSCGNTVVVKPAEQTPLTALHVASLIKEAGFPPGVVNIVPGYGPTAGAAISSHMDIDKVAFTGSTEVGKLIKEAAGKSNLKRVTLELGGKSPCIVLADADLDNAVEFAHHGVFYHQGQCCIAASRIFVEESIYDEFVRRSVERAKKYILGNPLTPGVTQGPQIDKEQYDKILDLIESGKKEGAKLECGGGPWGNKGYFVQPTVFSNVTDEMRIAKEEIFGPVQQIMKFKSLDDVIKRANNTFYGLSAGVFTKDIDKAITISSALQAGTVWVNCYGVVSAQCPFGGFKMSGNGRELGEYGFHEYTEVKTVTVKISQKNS

Columns and labels:
[1] = biological target: T1, Aurora kinase A (human (endogenous in BxPC3 and Panc1)) (UniProt O14965); assay: co-IP; endogenous proteins of Panc1 cells; reciprocal immunoprecipitation
T1 sequence: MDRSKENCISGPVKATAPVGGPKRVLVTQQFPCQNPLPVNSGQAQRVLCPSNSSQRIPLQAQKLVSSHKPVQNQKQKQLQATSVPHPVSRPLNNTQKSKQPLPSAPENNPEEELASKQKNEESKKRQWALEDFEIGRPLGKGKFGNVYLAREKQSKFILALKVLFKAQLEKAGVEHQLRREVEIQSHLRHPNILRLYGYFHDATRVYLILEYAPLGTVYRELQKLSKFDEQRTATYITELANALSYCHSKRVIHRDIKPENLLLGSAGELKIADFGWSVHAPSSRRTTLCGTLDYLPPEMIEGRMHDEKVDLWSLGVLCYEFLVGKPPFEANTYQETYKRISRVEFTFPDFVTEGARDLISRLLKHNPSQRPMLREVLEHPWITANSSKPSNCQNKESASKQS

[2] = biological target: T1, Aurora kinase A (human (endogenous in BxPC3 and Panc1)); assay: co-IP; endogenous proteins of BxPC3 cells; ALDH1A1 immune complex blotted for AURKA and AURKA immune complex blotted for ALDH1A1; IgG as negative control

For “aldehyde dehydrogenase 1A1 (from UniProt P00352 1-501) (enzyme)”, the binding [1] was “binds” and the binding [2] was “binds”.
